The campaign covered roughly 340,000 compounds. About 170 (0.05%) were called active. Inconclusive results, whose numbers are uncertain, are shown with a selection of clear calls. The call rests on the fitted dose curve; in most records, active means well fitted inhibition curve with a large enough effect in the signal ratio, with a control signal flat (not every such curve was filed as active); inconclusive means small, poorly fitted or top-dose-only effect, or effect the other way, or a change in a side signal; inactive means flat fitted curve, though single readings scatter; the % refers to the signal ratio. Potencies of inconclusive entries are doubtful fits and often do not repeat.
experiment: qHTS Assay to Find Inhibitors of Chronic Active B-Cell Receptor Signaling; settings: ABC-DLBCL IkBa-CBG/CBR reporter, luminescence ratio (green luciferase fused to IkBa over red control in TMD8 lymphoma cells), 4 h; activity change, negative = inhibition: at 46.1 µM (top of the series);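 on activity change, negative = inhibition: plate controls were basal doxycycline-induced cells for no effect and cells given 10 µM MG132 for full effect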
Outline: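 Concentration-response series (up to 46 uM) were applied to TMD8 dual-reporter cells for 4 h at 37C with doxycycline. Green/red ratio, after filter-overlap correction, defined %Activity; red signal alone was normalised to basal cells and zero luminescence.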
Potency means the concentration at half of the fitted maximal effect.

| SMILES | activity change, negative = inhibition | Potency |
| --- | --- | --- |
| CC(C)C(=O)N1CCC2(CC1)Oc1ccc(F)cc1C(=O)C21CC(c2ccccc2)=NO1 (stereo not drawn) | inconclusive: -10.4% | – |
| Cc1ccc[n+](/C(C(=S)NCc2ccco2)=C(/[O-])c2ccccc2Cl)c1 | inconclusive: 14.6% | – |
| COc1ccc(CCNC(=O)c2oc(=O)c3ccccc3c2-c2ccccc2)cc1OC | inconclusive: -2.07% | – |
| CC(=O)c1c(N2CCN(Cc3ccccc3)CC2)nc(=S)n(-c2ccccc2)c1C | inactive: 4% | – |
| C1=C(N2CCOCC2)/C(=C/c2nc3ccccc3[nH]2)CC1 | inconclusive: -6.74% | – |
| COc1ccc(/C=N/NC(=O)CC(=O)N/N=C/c2ccc(OC)cc2)cc1 | inactive: 1.39% | – |
| O=C(Nc1ccc(Cl)c(Cl)c1)Nc1ccc(N2CCCC2)c(S(=O)(=O)Nc2ccccc2Cl)c1 | inconclusive: 14.8% | – |
| Cc1cccc(OCC(=O)N/N=C/C=C/c2ccco2)c1 | – | inconclusive: 25.9 µM [falling, partial curve, poor fit] |
| Cc1ocnc1C(=O)Nc1ccc(Cl)cc1 | – | inconclusive: 14.1 µM [falling, partial curve] |
| COc1ccc(CCNC(=O)c2cc3c(=O)n4ccccc4nc3n(C3CCCCC3)c2=N)cc1OC | inconclusive: -4.72% | – |
| CCC1CCCCN1c1nc(-c2cccc(OC)c2O)nc2ccccc12 (stereo not drawn) | inactive: 2.95% | – |
| O=C(CSc1nncc2ccccc12)Nc1ccccc1 | – | inconclusive: 35.5 µM [falling, single point] |
| CCn1cc(CN2CCC(C(=O)Nc3ccc(Oc4ccccc4)nc3)CC2)cn1 | inactive: 0.301% | – |
| O=C1C2=C(C(=O)c3ccccc31)C1O[C@](CCCCN3C(=O)c4ccccc4C3=O)(Cc3c1ccc1ccccc31)O2 | – | inconclusive: 3.55 µM [rising, partial curve, poor fit] |
| Cc1nn(-c2ccccc2)c(Cl)c1C(=O)OCC(=O)NCCc1ccc(S(N)(=O)=O)cc1 | – | inconclusive: 29.1 µM [falling, single point] |
| O=C(COc1cc(Cl)c(Cl)cc1Cl)Nc1cccc(O)c1 | inconclusive: -2.97% | – |
| Cc1c(C)n(Cc2ccccc2)c2ccc(C(=O)OCCN(C)C)cc12 | – | inconclusive: 7.94 µM [rising, partial curve, poor fit] |
| Cc1ccc(-c2c(C#N)c(N)nc3c2CCCCC3)cc1 | inconclusive: -3.17% | – |
| CCOc1ccccc1N(CC(=O)N1CCCCCC1)S(=O)(=O)c1ccc(C)cc1 | inactive: 5.21% | – |
| CC(=O)N1N=C(c2ccc(NS(=O)(=O)c3ccccc3)cc2)CC1c1ccco1 (stereo not drawn) | – | inconclusive: 23.1 µM [falling, partial curve, poor fit] |
| Cc1ccc(S(=O)(=O)Nc2nc(C)cc(-n3nc(C)cc3C)n2)cc1 | inconclusive: 1.61% | – |
| COc1ccc(-c2cc3n(n2)CCc2nc4ccccc4n2-3)cc1 | – | inconclusive: 18.4 µM [falling, partial curve] |
| C=CCOc1c(Cl)cc(CNCCC)cc1Cl | inconclusive: -4.54% | – |
| O=[N+]([O-])c1ccc(S(=O)(=O)Nc2ccc3c(c2)OCCO3)cc1 | inactive: -1.23% | – |
| Cc1ccc(C(=O)/C=C/C(=O)O)cc1 | – | inconclusive: 7.31 µM [rising, partial curve, poor fit] |
| COc1ccc(N/C=C/C(=O)c2ccccc2)cc1 | – | inconclusive: 31.6 µM [rising, single point] |

| SMILES | activity change, negative = inhibition | Potency |
| --- | --- | --- |
| CC(C)CCN1CCN(CC(c2ccccc2)c2ccccc2)CC1CCO (stereo not drawn) | – | inconclusive: 3.98 µM [falling, full curve, poor fit] |
| Cc1ccc(S(=O)(=O)N(CC2CO2)c2ccccc2[N+](=O)[O-])cc1 (stereo not drawn) | inactive: 5.91% | – |
| Cc1ccc(NC(=S)NCc2ccccc2)cc1S(=O)(=O)N1CCCCC1 | inconclusive: -6.77% | – |
| COc1ccc(/C=C2\SC(=O)N(CCNC(=O)C3=COCCO3)C2=O)cc1 | inconclusive: -22.1% | – |
| CC1(C(=O)OCC(=O)Nc2nnc(-c3ccccc3)o2)CC1(Cl)Cl (stereo not drawn) | inconclusive: -17.4% | – |
| COc1ccc(CN2CCN(C(=O)c3cccs3)CC2)c(OC)c1OC | inactive: -2.19% | – |
| CCCc1ccc(OCCNC(=O)c2ccco2)cc1 | inconclusive: 4.9% | – |
| COc1ccccc1N(C(=O)c1snc(C(N)=O)c1N)C(C(=O)NCCC(C)C)c1ccco1 (stereo not drawn) | – | inconclusive: 25.1 µM [falling, single point] |
| CN1C(=O)/C(=C\c2ccc(N(C)C)cc2)OC1=S | inactive: 8.96% | – |
| N#C/C(C(=O)c1ccccc1)=C1/CCCN1 | inactive: 2.91% | – |
| O=C(CN1CCCN(S(=O)(=O)c2ccc(Br)cc2)CC1)Nc1ccc2c(c1)OCO2 | inconclusive: -8.26% | – |
| COc1ccccc1NC(=O)Nc1nnc(-c2ccco2)s1 | inconclusive: 2.44% | – |
| CCOC(=O)C1(Cc2cccc(OC)c2)CCN(Cc2cccc(OCC)c2O)CC1 | inactive: -8.12% | – |
| CSc1nsc(SC)c1C(=O)OCC(F)(F)F | inconclusive: -0.0942% | – |
| O=C1NC(=S)N/C1=C/c1cc([N+](=O)[O-])ccc1O | inactive: -13.6% | – |
| COc1cc(O)c2c(=O)c3c(OC)c(O)ccc3oc2c1 | – | inconclusive: 0.00731 µM [rising, full curve, poor fit] |
| O=C1CNC(=S)N1Cc1ccccc1 | inconclusive: 5.85% | – |
| Cc1cc(C)c2c(=O)cc(C(=O)NCc3ccccc3)oc2c1 | inactive: 6.58% | – |
| O=C(/C=C/c1ccccc1)NC(=S)Nc1ccccc1C(=O)NC1CCCCC1 | inactive: -3.41% | – |
| CC(C)CN(C(=O)CSc1nc2ccccc2c(=O)[nH]1)c1c(N)n(CC(C)C)c(=O)[nH]c1=O | inconclusive: -0.85% | – |
| CC1CCCN(C(=O)COC(=O)c2cc(Br)ccc2O)C1 (stereo not drawn) | inconclusive: -4.06% | – |
| Cc1ccccc1C(=O)O/N=C(\N)c1ccccc1 | – | inconclusive: 31.6 µM [falling, single point] |
| Cc1cccc(NC(=O)c2cc3ccccc3o2)c1 | – | inconclusive: 3.98 µM [falling, partial curve] |
| CCOc1ccc2nc(-c3ccc(OC)c(OC)c3)cc(C(=O)O)c2c1 | – | inconclusive: 16.4 µM [falling, partial curve] |
| CSc1nnc(C)c(=O)n1COC(=O)c1ccc(S(=O)(=O)N(C)C)cc1 | inconclusive: -2.42% | – |
| Cc1ccc(OCCn2cnc3c(N)ncnc32)cc1 | – | inconclusive: 12.6 µM [falling, partial curve] |

| SMILES | activity change, negative = inhibition | Potency |
| --- | --- | --- |
| O=C(Nc1ccc(Nc2ccccc2)cc1)c1ccc(Cl)c([N+](=O)[O-])c1 | inconclusive: -23.9% | – |
| O=C(COc1ccccc1[N+](=O)[O-])Nc1cc(Cl)ccc1C(=O)O | – | inconclusive: 35.5 µM [rising, single point] |
| CCOc1ccc(Nc2cc(C)c3ccccc3n2)cc1 | inconclusive: 7.19% | – |
| CCCC(CCC)C(=O)Nc1ccc2c(c1)N(C(=O)CN1CCN(C)CC1)c1ccccc1CC2 | inconclusive: -0.752% | – |
| COC(=O)c1ccc2nc(Nc3nc4c(F)cc(F)cc4s3)sc2c1 | – | inconclusive: 0.092 µM [falling, full curve, poor fit] |
| COc1ccc2c(c1)Cc1sc(NC(=O)c3ccco3)nc1-2 | inconclusive: -6.83% | – |
| O=C1C2Sc3[nH]c(=O)sc3C(c3ccccc3)C2C(=O)N1c1ccccc1 (stereo not drawn) | inconclusive: -10.1% | – |
| COc1ccc(CNCC(O)COc2ccc(C(C)(C)c3ccccc3)cc2)cc1 (stereo not drawn) | inactive: -16.5% | – |
| Cc1cc(Cl)ccc1OC(C)C(=O)NN1C(=O)c2ccccc2C1=O (stereo not drawn) | – | inconclusive: 7.94 µM [falling, partial curve, poor fit] |
| O=C1N/C(=N\N=C\c2cccs2)SC1Cc1ccc(Cl)cc1 (stereo not drawn) | – | inconclusive: 10.3 µM [falling, partial curve] |
| Cc1cc(NC(=O)Cc2cn3ccsc3n2)n(-c2ccccc2)n1 | inconclusive: 5.5% | – |
| FC(F)(F)c1ccc2c(c1)[nH]c(=S)n2C1CC1 | inconclusive: 10.1% | – |
| Cc1cc(C)n(CC(O)Cn2c(C)c(C)c3ccccc32)n1 (stereo not drawn) | inconclusive: -5.51% | – |
| O=S(=O)(Nc1cc(F)ccc1F)c1ccc2[nH]c3c(c2c1)CCCCC3 | – | inconclusive: 0.794 µM [rising, full curve] |
| O=C(COC(=O)C1CCC(N2C(=O)C3C4CCC(C4)C3C2=O)CC1)c1ccc(F)cc1 (stereo not drawn) | inactive: 0.678% | – |
| COc1ccc(CCCc2nc3ccccc3[nH]2)cc1 | inconclusive: 5.26% | – |
| O=C(Cc1cccs1)Nc1ccccc1-c1nc2ccccc2[nH]1 | inactive: -1.39% | – |
| NCCN1C(=O)S/C(=C\c2ccc3c(c2)OCO3)C1=O | – | inconclusive: 31.6 µM [falling, partial curve] |
| Cc1ccn2c(NCc3ccc4c(c3)OCO4)c(-c3ccc(O)cc3)nc2c1 | – | inconclusive: 29.1 µM [rising, single point] |
| C=CCN(C(=O)c1cccc(S(=O)(=O)N2CCN(C)CC2)c1)c1nc(-c2ccccc2)cs1 | – | inconclusive: 1.3 µM [rising, full curve, poor fit] |
| Cc1ccsc1C(=O)NCCc1c[nH]c2ccccc12 | – | inconclusive: 31.6 µM [rising, single point] |
| Clc1nc(CN2CCCCC2)nc2sc3c(c12)CCCC3 | inconclusive: -21.7% | – |
| Nc1c(C(=O)N/N=C/c2cccnc2)oc2nc(-c3ccco3)cc(-c3ccco3)c12 | – | inconclusive: 10 µM [rising, partial curve] |
| Cc1nc(/C(N)=N/OC(=O)Cc2ccccc2)no1 | inconclusive: 8.61% | – |
| Cc1cc(C(F)F)n2nc(C(=O)Nc3cccc(S(=O)(=O)N4CCOCC4)c3)nc2n1 | inconclusive: -1.45% | – |
| COc1ccc2c(c1OC)C(=O)N1C2SC[C@H]1C(=O)NC1CCCCC1 (stereo partly drawn) | – | inconclusive: 3.98 µM [falling, partial curve, poor fit] |

— PubChem BioAssay AID493014 (National Center for Advancing Translational Sciences (NCATS), 2011)
